This note sets out measurements from article PMC8416735.

Chains of the proteins cited; added tags and fusions are not shown.
UniProt P05412: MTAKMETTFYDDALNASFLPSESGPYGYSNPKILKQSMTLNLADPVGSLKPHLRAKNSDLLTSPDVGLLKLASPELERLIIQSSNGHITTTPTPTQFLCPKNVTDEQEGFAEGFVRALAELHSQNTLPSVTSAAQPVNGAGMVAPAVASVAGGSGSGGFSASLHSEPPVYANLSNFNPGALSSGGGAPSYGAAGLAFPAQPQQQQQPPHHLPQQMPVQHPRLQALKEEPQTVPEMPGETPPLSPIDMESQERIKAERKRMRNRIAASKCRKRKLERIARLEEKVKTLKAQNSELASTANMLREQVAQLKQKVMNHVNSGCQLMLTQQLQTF
UniProt P10275: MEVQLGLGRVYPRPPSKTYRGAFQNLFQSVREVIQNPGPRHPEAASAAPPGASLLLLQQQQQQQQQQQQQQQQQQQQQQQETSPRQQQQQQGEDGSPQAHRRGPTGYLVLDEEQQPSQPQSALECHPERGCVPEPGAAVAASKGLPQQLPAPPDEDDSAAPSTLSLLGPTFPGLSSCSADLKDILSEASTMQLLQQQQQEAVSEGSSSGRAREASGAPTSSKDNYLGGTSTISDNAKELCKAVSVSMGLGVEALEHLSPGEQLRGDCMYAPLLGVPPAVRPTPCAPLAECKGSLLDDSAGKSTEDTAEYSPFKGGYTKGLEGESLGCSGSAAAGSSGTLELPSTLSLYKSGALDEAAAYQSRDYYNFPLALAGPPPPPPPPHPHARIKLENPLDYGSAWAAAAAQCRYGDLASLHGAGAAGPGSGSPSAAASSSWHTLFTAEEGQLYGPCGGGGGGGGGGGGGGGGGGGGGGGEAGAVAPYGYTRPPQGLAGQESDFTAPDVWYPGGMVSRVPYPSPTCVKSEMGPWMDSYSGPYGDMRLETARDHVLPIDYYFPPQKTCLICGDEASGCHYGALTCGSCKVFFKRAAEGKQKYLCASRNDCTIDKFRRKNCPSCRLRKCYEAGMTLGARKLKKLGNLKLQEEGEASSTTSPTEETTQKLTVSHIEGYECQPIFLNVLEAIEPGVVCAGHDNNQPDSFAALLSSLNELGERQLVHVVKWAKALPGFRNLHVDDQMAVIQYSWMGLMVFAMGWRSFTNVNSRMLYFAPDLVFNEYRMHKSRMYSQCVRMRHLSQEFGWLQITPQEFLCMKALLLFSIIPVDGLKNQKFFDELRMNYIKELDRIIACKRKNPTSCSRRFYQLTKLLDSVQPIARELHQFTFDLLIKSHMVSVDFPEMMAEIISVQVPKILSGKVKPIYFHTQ

These are yes or no findings as the source states them, for the method shown. In cells and extracts the contact can be indirect. Some entries that bind do so weakly or less than the wild type.

This assay concerns the target c-Jun, endogenous in PC3-oe-AR cells (human (endogenous in PC3)) (UniProt P05412). The assay is described as follows: co-IP; lysates of LNCaP-oe-cJun and PC3-oe-AR cells; 5 ug anti-cJun or same-host-sourced anti-IgG antibody at 4°C overnight, protein A/G agarose beads 2 h at 4°C; immunoblotting with anti-AR, anti-DNMT1 and anti-cJun.

“androgen receptor, overexpressed in PC3 cells by lentiviral transduction (PC3-oe-AR) (from UniProt P10275 1-920)”: the binding entry is reported as “binds”.
